According to PMC10295924:
Results are given in words; binding and its absence hold for the method and conditions named. Binding seen in cells or lysates may run through a third protein. For part of these data: Binding calls can cover weak binding; strength is not graded here.

Tests used:
Assay in all cases: pull-down; HEK293T cells co-transfected with MYC-LEF1 (or its mutants) and SFB-tagged DUB (or OTUD7B mutants); SFB protein pulled down from lysate with S-protein beads; immunoblot with anti-MYC and anti-FLAG
[1] = molecular target: T1, SFB-USP26 (human) (UniProt Q9BXU7)
T1 sequence: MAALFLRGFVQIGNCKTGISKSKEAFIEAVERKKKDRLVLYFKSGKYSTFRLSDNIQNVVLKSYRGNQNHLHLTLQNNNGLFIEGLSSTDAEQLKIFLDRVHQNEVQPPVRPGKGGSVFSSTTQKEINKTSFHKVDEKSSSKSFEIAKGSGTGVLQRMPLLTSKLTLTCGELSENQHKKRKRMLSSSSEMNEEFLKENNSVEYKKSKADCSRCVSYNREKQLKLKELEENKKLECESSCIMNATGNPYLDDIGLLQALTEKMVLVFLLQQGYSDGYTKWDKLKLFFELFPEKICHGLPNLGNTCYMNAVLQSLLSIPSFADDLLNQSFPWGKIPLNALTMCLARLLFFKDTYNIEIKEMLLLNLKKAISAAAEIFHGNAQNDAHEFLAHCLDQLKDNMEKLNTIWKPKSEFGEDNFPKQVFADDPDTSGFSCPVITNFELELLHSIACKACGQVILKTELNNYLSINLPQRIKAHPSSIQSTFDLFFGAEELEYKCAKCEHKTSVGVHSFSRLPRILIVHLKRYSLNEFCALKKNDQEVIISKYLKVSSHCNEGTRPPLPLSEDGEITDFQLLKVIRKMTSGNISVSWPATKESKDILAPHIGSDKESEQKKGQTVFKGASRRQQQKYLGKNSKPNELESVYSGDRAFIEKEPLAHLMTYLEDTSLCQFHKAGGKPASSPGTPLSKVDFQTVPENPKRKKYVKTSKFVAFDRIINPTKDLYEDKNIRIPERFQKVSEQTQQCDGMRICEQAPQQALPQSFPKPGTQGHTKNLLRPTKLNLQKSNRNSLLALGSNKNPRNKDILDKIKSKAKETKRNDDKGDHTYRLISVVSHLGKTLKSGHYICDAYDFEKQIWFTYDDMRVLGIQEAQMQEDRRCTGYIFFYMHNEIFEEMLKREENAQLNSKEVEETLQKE

[2] = molecular target: T2, SFB-USP36 (human) (UniProt Q9P275)
T2 sequence: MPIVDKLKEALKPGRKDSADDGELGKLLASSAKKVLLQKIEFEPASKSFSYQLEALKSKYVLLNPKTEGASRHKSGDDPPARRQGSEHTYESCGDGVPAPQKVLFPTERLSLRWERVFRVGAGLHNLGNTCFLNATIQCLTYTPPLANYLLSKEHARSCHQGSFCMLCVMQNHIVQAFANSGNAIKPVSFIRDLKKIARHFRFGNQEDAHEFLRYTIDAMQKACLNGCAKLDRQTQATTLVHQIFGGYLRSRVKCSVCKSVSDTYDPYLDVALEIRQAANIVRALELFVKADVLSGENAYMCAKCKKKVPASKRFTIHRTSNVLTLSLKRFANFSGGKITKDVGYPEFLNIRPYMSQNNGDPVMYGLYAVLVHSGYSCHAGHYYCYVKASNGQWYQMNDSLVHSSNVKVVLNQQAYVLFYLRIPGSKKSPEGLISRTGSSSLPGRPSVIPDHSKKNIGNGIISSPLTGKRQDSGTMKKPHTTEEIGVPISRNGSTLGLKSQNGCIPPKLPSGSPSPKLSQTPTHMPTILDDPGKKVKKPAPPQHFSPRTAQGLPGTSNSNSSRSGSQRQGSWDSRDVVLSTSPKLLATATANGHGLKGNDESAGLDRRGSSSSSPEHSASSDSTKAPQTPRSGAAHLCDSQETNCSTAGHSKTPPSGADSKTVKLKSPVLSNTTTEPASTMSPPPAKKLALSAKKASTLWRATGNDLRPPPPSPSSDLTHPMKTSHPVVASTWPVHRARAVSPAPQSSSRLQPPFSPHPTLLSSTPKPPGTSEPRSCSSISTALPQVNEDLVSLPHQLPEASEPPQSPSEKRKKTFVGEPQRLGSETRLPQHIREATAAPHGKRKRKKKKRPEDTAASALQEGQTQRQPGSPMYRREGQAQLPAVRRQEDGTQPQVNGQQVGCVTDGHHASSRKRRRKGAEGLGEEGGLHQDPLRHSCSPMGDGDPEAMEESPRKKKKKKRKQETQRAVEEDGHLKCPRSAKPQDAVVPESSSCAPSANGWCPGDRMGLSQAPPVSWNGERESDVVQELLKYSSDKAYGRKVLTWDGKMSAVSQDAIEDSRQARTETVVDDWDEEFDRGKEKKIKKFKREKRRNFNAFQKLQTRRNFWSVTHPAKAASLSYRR

[3] = molecular target: T3, SFB-USP42 (human) (UniProt Q9H9J4)
T3 sequence: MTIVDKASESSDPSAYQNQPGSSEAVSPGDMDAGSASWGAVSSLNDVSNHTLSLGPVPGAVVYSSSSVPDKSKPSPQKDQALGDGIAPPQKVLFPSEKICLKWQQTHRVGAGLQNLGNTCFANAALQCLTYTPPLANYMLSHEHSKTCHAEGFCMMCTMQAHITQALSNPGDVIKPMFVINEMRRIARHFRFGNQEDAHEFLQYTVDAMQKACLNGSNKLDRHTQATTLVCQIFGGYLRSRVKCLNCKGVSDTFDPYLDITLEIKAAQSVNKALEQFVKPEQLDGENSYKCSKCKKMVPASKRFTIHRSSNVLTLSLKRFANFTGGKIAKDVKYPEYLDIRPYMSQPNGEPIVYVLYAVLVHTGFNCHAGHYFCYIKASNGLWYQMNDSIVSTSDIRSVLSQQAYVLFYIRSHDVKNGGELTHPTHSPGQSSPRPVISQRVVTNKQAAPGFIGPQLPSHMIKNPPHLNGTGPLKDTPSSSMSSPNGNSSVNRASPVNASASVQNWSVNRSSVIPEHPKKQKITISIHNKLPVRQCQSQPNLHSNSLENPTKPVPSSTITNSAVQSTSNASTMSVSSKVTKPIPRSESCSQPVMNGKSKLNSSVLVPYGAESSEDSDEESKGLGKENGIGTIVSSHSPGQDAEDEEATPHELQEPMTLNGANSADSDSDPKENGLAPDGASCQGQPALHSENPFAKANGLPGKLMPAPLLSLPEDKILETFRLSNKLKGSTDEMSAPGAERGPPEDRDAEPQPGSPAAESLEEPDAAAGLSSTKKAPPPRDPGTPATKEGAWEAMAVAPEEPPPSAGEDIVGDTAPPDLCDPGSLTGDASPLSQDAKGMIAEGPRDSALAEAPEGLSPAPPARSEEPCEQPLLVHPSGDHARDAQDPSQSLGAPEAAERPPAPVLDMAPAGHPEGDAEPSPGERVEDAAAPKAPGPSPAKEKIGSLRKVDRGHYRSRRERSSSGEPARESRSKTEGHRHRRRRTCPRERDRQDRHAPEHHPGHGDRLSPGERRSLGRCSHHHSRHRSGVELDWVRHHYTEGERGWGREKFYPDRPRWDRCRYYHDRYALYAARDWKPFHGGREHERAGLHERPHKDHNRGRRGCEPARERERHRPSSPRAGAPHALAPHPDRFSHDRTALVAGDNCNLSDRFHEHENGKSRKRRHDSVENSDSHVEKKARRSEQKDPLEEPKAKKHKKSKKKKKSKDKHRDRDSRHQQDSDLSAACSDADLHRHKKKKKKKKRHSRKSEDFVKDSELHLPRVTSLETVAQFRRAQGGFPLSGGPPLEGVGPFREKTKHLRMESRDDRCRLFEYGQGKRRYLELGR

binding [1]: no binding | binding [2]: binds | binding [3]: no binding
Substance: MYC-LEF1 (Lymphoid enhancer-binding factor 1), full length (human)
